These results are taken from PubChem BioAssay AID493014 (National Center for Advancing Translational Sciences (NCATS), 2011).

Some of the results follow. The main result of the screen is listed elsewhere. These columns were measured beside it and carry no call. Most of these compounds were active or inconclusive in the main read-out, so they are no random draw. Words in brackets tell the shape of the fitted curve; partial curves, single points and poor fits give uncertain potencies.

The nature of the experiment: qHTS Assay to Find Inhibitors of Chronic Active B-Cell Receptor Signaling. The note with it: ABC-DLBCL IkBa-CBG/CBR reporter, luminescence ratio (green luciferase fused to IkBa over red control in TMD8 lymphoma cells), 4 h. The method, boiled down:
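Doxycycline induced both beetle luciferases in TMD8 lymphoma cells; IKK-driven degradation limits the IkappaBalpha-fused green signal, while red luminescence normalises for cell number and nonspecific effects. Compounds tested up to 46 uM, 4 hrs.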

The mark [1] stands for this setting: measured here: CBR red luminescence, cell number.
[2] abbreviates: measured here: IkBa-CBG green luminescence.

Take `C=CC[C@H](CC(=O)N(CCO)Cc1ccccc1)C(=O)N[C@H](COC(=O)[C@@H](CC=C)CC(=O)OC(C)(C)C)Cc1c[nH]c2ccccc12`: under setting [1], the AC50 (in general, the concentration at which the activity in the assay is half-maximal) is 29.1 µM [falling, single point].
`Cc1cccc(COc2ccccc2C(=O)OCC(=O)N(C)c2c(N)n(Cc3ccccc3)c(=O)[nH]c2=O)c1`: under setting [1], the AC50 was 12.6 µM [falling, single point].
`COc1ccccc1CNc1ncnc2c1nnn2C`: under setting [1], the AC50 was 22.4 µM [falling, single point].
As to `COc1ccc(C2C(C(=O)c3ccco3)=C(O)C(=O)N2CCN2CCOCC2)c(OC)c1` (centres undefined), under setting [1], the AC50 was 2.82 µM [rising, full curve, poor fit].
Turning to `CC(=O)Nc1ccc(S(=O)(=O)NCC(=O)OCC(=O)NCc2ccc3c(c2)OCO3)cc1`, the half-maximal activity concentration (AC50) under setting [1] was 5.8 µM [rising, partial curve, poor fit].
As to `COCCN(C(=O)CSc1nnc(-c2cccc(OC)c2)n1C)c1c(N)n(Cc2ccccc2)c(=O)[nH]c1=O`, the half-maximal activity concentration (AC50) under setting [1] is 35.5 µM [rising, single point].
As for `Cc1ccccc1-c1nnn(Cc2cccc(S(=O)(=O)N3CCOCC3)c2)n1`, the half-maximal activity concentration (AC50) under setting [1] was 29.1 µM [falling, partial curve, poor fit].
For `O=C(N/N=C/c1ccccc1O)c1cc(=O)[nH]c2ccccc12`, under setting [1], the half-maximal activity concentration (AC50) is 20.6 µM [rising, partial curve].
With `CCOC(=O)N1CCN(C(=O)c2ccc3c(c2)N(Cc2ccc(C)cc2)CCS3)CC1`, the AC50 under setting [1] was 18.4 µM [falling, single point].
For `CCCCC(=O)NNC(=S)NC(=O)c1ccc(C)cc1`, the AC50 under setting [1] is 17.8 µM [rising, single point].
With `Clc1ccc(/C=N/NC2=Nc3cccc4cccc2c34)cc1`, the AC50 under setting [1] is 2.91 µM [rising, partial curve, poor fit] and the concentration at half-maximal activity (AC50) under setting [2] was 8.2 µM [falling, partial curve, poor fit].
For the molecule `CC1=CC(c2ccccc2)=Nc2ccc(C)cc2N1`, the AC50 under setting [1] is 23.1 µM [falling, partial curve, poor fit].
With `CCOC(=O)N1CCN(C(=O)c2cc3c(=O)[nH]c4ccccc4c3s2)CC1`, under setting [1], the half-maximal activity concentration (AC50) is 1.64 µM [rising, full curve, poor fit].
Take `CCn1c(SCC(=O)Nc2cc(C)c(Cl)cc2OC)nnc1-c1ccco1`: the half-maximal activity concentration (AC50) under setting [1] was 3.66 µM [rising, partial curve, poor fit].
As to `COC(=O)c1[nH]c2c(c1C)C(=O)CC(c1cccs1)C2` (centres undefined), the AC50 under setting [1] is 3.26 µM [rising, full curve].
Same read-out and setting: next, `CN(C)CCCN(C(=O)/C=C/c1cccs1)c1nc2ccc(F)cc2s1`: 25.1 µM [falling, single point]; `O=C(Nc1ccc(Cc2ccncc2)cc1)c1ccc(Cl)c([N+](=O)[O-])c1`: 35.5 µM [falling, single point].
On the same count and under the same terms, in the case of `COc1ccc(/C=C/C(=O)Nc2cc(=O)n(C)c(=O)n2C)cc1` it was 6.51 µM [rising, full curve, poor fit]; in that of `O=C(NC(=S)Nc1ccc2oc(=O)ccc2c1)c1ccc(-c2cccc(Cl)c2Cl)o1`, 4.61 µM [falling, partial curve, poor fit].
For `CCN1CCN(CC(=O)N2c3ccccc3Sc3ccccc32)CC1`, the half-maximal activity concentration (AC50) under setting [1] is 35.5 µM [rising, single point].
`CCC(C)OC(=O)n1ccc(C(=O)Nc2nccs2)n1` (centres undefined): the concentration at half-maximal activity (AC50) under setting [1] was 11.6 µM [falling, partial curve, poor fit].
Turning to `COC(=O)N/N=C\c1c(C)nn(-c2ccccc2)c1Cl`, under setting [1], the half-maximal activity concentration (AC50) is 23.1 µM [falling, partial curve].
As to `CCC(=O)NNc1ncnc2c1cnn2-c1ccc(C)c(Cl)c1`, under setting [1], the AC50 is 5.62 µM [falling, partial curve].
Take `COC(=O)c1c(NC(=O)CN(c2ccc(C)c(C)c2)S(C)(=O)=O)sc2c1CCCC2`: the AC50 under setting [2] is 32.6 µM [rising, partial curve, poor fit].
Take `COCCNC(=O)c1onc(CSc2ccccc2F)c1C(=O)O`: the AC50 under setting [1] is 11.2 µM [falling, partial curve, poor fit].
`Fc1ccc(CNCc2cccc(Br)c2)cc1`: the AC50 under setting [1] was 20.6 µM [rising, partial curve, poor fit].
Turning to `COc1ccc(NC(=S)N/N=C/c2ccc(F)cc2)cc1OC`, the AC50 by setting is: under setting [1], 15.8 µM [rising, partial curve, poor fit]; under setting [2], 28.2 µM [falling, partial curve, poor fit].
`Cc1cc(C)c(NC(=O)CN2C(=O)NC3(CCCCC3)C2=O)c(C)c1`: the AC50 under setting [1] was 2.82 µM [rising, partial curve, poor fit].
With `Cc1c(CC(=O)NCC(=O)NCC(=O)O)c(=O)oc2cc3oc4c(c3cc12)CCCC4`, under setting [1], the AC50 was 35.5 µM [rising, single point].
The same measure, in the same setting: next, `O=C(CSC1=NCCS1)Nc1ccc(S(=O)(=O)N2CCCCCC2)cc1`: 35.5 µM [falling, single point].
Same read-out and setting: in the case of `Cc1nc2ccccc2c(=O)n1/N=C/c1ccc(O)cc1O` it was 22.4 µM [falling, single point].
With `COc1ccccc1NC(=O)COc1cc(Br)c(CNCCCN2CCOCC2)cc1OC`, the AC50 under setting [1] is 12.6 µM [falling, single point].
In the case of `CN(CCC#N)C(=O)COC(=O)c1ccc2[nH]c3c(c2c1)CCCC3`, under setting [2], the AC50 is 7.94 µM [rising, partial curve, poor fit].
For `COc1ccc(S(=O)(=O)N(C)CC(=O)NCCCn2ccnc2)cc1Cl`, under setting [1], the AC50 is 35.5 µM [rising, single point].
As for `O=C(O)/C=C/C(=O)Nc1ccc(O)cc1`, under setting [1], the AC50 is 0.224 µM [falling, full curve, poor fit].
For `COc1cccc(N2CCN(Cc3nc(N)nc(Nc4ccccc4OC)n3)CC2)c1`, under setting [1], the AC50 is 0.461 µM [rising, full curve, poor fit].
Consider `CC(=O)c1cccc(NC(=S)NC(=O)c2cccc(Cl)c2)c1`, for which the AC50 under setting [1] was 3.66 µM [rising, partial curve, poor fit].
With `O=C(COc1ccc(Br)cc1)Nc1nnc(-c2cccnc2)s1`, under setting [1], the half-maximal activity concentration (AC50) is 3.16 µM [rising, single point].
`Cc1cc(NC(=O)c2ccc(S(=O)(=O)Nc3ccccc3)cc2)no1`: the AC50 under setting [1] was 5.62 µM [falling, partial curve].
Turning to `COc1ccc(NC(=O)N(Cc2ccc(C)cc2)Cc2cccnc2)c(OC)c1`, under setting [1], the concentration at half-maximal activity (AC50) was 23.1 µM [rising, partial curve, poor fit].
Consider `COc1ccc(NC(=O)C(=O)N/N=C(\C)CC(=O)Nc2cc(C)ccn2)c(OC)c1`, for which the AC50 under setting [1] is 11.2 µM [falling, partial curve].
As for `COc1cc(C(=O)NC(=S)NNC(=O)c2ccc3c(c2)OCO3)cc(OC)c1OC`, the AC50 under setting [1] is 7.08 µM [falling, full curve, poor fit].
For the molecule `Cc1cc(C)c(CN2CCC(n3nccc3NC(=O)C3CCCC3)CC2)cc1C`, the AC50 under setting [1] was 7.08 µM [falling, full curve].
For `COc1ccc2nc(SCCC(=O)O)cc(C)c2c1`, the AC50 under setting [1] was 12.6 µM [falling, single point].
For `Cn1c(SCc2ccc(Br)cc2)nnc1-c1ccccn1`, the concentration at half-maximal activity (AC50) under setting [1] is 22.4 µM [rising, single point].
With `O=Cc1c[nH]c2ccc(OCc3ccccc3)cc12`, the AC50 under setting [1] is 23.1 µM [rising, partial curve, poor fit].
As for `O=C(Nc1ccc(F)c(Cl)c1)c1ccc2c(c1)OCO2`, the AC50 under setting [1] was 11.2 µM [falling, single point].
Regarding `Cc1cc(=O)oc2c(C)c(OCC(=O)Nc3cccnc3)ccc12`, the half-maximal activity concentration (AC50) under setting [1] is 2.82 µM [rising, full curve, poor fit].
Turning to `COc1ccc(S(=O)(=O)N(C(=O)c2ccncc2)c2ccc(OC(=O)c3ccncc3)cc2)cc1`, the concentration at half-maximal activity (AC50) was 6.31 µM [falling, single point] under setting [1] and 35.5 µM [falling, partial curve, poor fit] under setting [2].
For the molecule `COc1ccccc1C1/C(=C(/O)c2ccc(C)cc2)C(=O)C(=O)N1CCN1CCOCC1` (centres undefined), under setting [1], the concentration at half-maximal activity (AC50) is 16.4 µM [falling, partial curve, poor fit].
With `CCN(CC)S(=O)(=O)c1ccc2c(c1)nc(CCC(=O)OCC(=O)Nc1cc(Cl)cc(Cl)c1)n2C`, under setting [1], the AC50 is 14.6 µM [falling, partial curve, poor fit].
In the case of `CC(C)c1onc(C(=O)N2CCN(Cc3ccccc3)CC2)c1[N+](=O)[O-]`, under setting [1], the AC50 was 16.4 µM [falling, partial curve, poor fit].
As to `COc1cc(/C=N/NC(=O)c2cccc(C(=O)N/N=C/c3ccc(O)c(OC)c3)n2)ccc1O`, the AC50 under setting [1] was 0.794 µM [rising, full curve, poor fit].
For `CC(=O)Nc1ccc(/C=C(\C#N)C(=O)NC2CCCCC2C)cc1` (centres undefined), the AC50 under setting [1] is 31.6 µM [falling, single point].
The same measure, in the same setting: next, `Cc1ccc(S(=O)(=O)c2ccc([N+](=O)[O-])cn2)cc1`: 11.2 µM [falling, partial curve]; `COC(=O)c1c(NC(=O)C2CC=CCC2C(=O)O)sc2c1CCCCC2` (centres undefined): 8.91 µM [falling, partial curve, poor fit].
For the molecule `CC1=C(C(N)=O)C(c2ccccc2)n2nc(-c3cccs3)nc2N1` (centres undefined), under setting [1], the concentration at half-maximal activity (AC50) was 8.2 µM [falling, partial curve].
With `COc1ccc(C2(O)CCN(CCCCOc3ccccc3)CC2)cc1`, the half-maximal activity concentration (AC50) under setting [1] is 0.58 µM [rising, full curve].
The same measure, in the same setting: in the case of `O=Cc1ccc2noc(-c3ccc(F)cc3)c2c1` it was 29.1 µM [falling, single point]; in that of `Cn1c(-c2ccc(F)cc2)cnc1SCC(=O)Nc1ccccc1`, 17.8 µM [falling, partial curve, poor fit].
With `CC(C)=CCC1=C(OCC(=O)O)C(=O)c2ccccc2C1=O`, the half-maximal activity concentration (AC50) under setting [1] was 3.55 µM [falling, full curve, poor fit].
